No constants are given. Whether binding was seen depends on the method and setting.
T1: VASCULAR-RELATED NAC-DOMAIN7 (Arabidopsis thaliana) (UniProt Q9C8W9)
T1 sequence: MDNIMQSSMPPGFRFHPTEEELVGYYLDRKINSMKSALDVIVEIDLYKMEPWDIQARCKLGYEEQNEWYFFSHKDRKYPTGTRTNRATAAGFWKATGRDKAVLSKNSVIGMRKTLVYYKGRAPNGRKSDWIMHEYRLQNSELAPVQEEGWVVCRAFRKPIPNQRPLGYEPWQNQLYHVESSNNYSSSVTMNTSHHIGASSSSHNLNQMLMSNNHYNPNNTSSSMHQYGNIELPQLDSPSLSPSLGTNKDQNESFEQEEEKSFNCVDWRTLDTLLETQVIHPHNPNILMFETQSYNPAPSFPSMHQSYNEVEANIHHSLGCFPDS

B1: PLANT U-BOX46 (enzyme, UniProt Q3E9F7 1-458)
chain: MADSTETNADTLRRELQKVLTEILNDGGGNDRDETEAFSGVVKAIDEAVRILTCLRKVESKIPESDISPVEVPKEFICTLSNTIMIEPVIIASGQTYEKRYITEWLKHERTCPKTKQVLSHRLWIPNHLISDLITQWCLVNKYDHQKPSDELVAELFTSDIEALLQRVSSSSSVADQIEAAKELRHQTKKFPNVRVFFVAGIHDSITRLLSPLSTLDEAVDSSLELQENIVTALFNLSILESNKTVIAENCLVIPLLTKSLKQGTDETRRNAAATLSSLSAIDSNKIIIGNSEAVKALIDLIEEGDLLATKEATSTVFNLCIVLENKGKVVSAGLIHAATKKIKAGSNVDELLSLLALISTHNRAVEEMDKLGFIYDLFSILRKPSSLLTGENAVVIVFNMYDRNRDRSRLKVVGEEENQHGTFTKLAKQGSVRAARKAQGILQWIKRFVTGKEPQRA
B2: UBIQUITIN-SPECIFIC PROTEASE1 (enzyme, UniProt Q9FPT5 1-1083)
chain: MRFAATVSEKQSEQSVEVTEEFAVTMTEKRSCVHFDKYVDLDKLLKIIKSYQQIKCGECNERVHVKRGSRWGASNRRDWYSSSDQNCARNAIWLCLECGYYVCGDVGLPTEAQSHVMGHNRLTRHRLVIQCKNPQLRWCFSCQSLLPFDNEENGEKKDLLLEVVKLIRERSPNTYSASFETEFSCSGSIYGGIEARDGYAVRGLVNLGNTCFFNSVMQNLLSLDQLREHFLKEDLSVSGPLVSSLKELFAESNSEASVFRNEINPRDLFFSVCSQAPQFRGYQQHDSHELLRCLLDGLSIEESSLRKKLGVSDSNDSSTYQKPTLIDSVFGGEISSTVSCLECGHFSKVYEPFMDLSLPVPSMKLPPKKQQILSQAKEVLKNGAVSKDSEVVSAKPASDHNSTVPLFPSDHKIQSRPETSDNETDLVLLSDVSDTAPSTEAKGVNQILVGSTETLMHDNDRTGKTVPDKEDVRATQSNEETSASGISAVIDEAQVCGCPDLEQSSSSANQGADEELALMVADSQVLYMPYKDHLFYDDYMVAEASSSFVSGDHEPKKDYFDFSSFLDEPEIREGPVFRPLSKSEVYEAGFKADCSDDKTVSAGKGEASSSFISSDHEQNIDYVDFSSFFDEPEISERPFFRPLSKSEVSEAGFKADCSDDKTVSAGKGEASSSFVSSDHEQNIDYVDFSSFFDEPEISERPFFRPLSKSEVSEAGFMAVSGNDKTVRAGKGETFSSFMSGDNERNIDYVEFTNRIFDDRGTSERPVFGPPSKAKVSEAGFVAVSSDSDPAVLDESDSPVSVDRCLAQFTKHEILSEDNAWHCENCSKNLKLQRLREKRRTKEGLSNRWVNENGASSAFDECRDSSLNQSCIDLENGYKAAPPITKLPNCKEEESAIDDGFVGEENTKQAPITSVTETPLLGGETISSQPASDNECENWEDLAVDSEEVIVKRDARKKVLINKAPPVLTIHLKRFSQDARGRVSKLSGHVDFQEFIDLSKYMDTRCSEEDEPVYRLAGLVEHLGAMSRGHYVSYIRGGHKERRDSDTKEPNSSIWYHASDSQVRPASLEEVLRSEAYILFYERI
B3: uncharacterized F-BOX protein (FBX) (protein, UniProt Q9FL82 1-252)
chain: MFSEEVLKNVFPLLEGEDLASCMGVCKQWRDIARDDFYWKCQCAKKWPSVCKRHKPPTETYYKMYQTFSKRRLNRALPPPRLSFENLEFFIDIWSEERLVFSGLIPGVALENGIETLPLGISNVLRTHLGRPDYKMVVPAEPRFTIPLNQSVSVSVLVARNDSDKVARIINRSVFDYIDRSSYRALAFEYLDLSPCYPFISGIRAWISLLFMDVEDMNDDGLLDVFGIQLDFNDVADTKEEVLWLLDMLDWK
B4: PLANT U-BOX36 (enzyme, UniProt Q8GZ84 1-435)
chain: MTLKIPIQEMVKMVGSLRSHGIDIPESMEINKKEKIYVAVTEKDLESKSSLVWAIQNSGGKEFCIVHVHQPIPGEMFHEQKLRLYRKEKDKAHKNSEKYLQICRQMQVTAEIIYIETDSVEKGILQLISQRGVTKLVMGAAADRHYSMRMRDLKSKKAIYIHREAPATCLIWFTCNGYLICSREARRANNLYLECASSNSLSQSDITRGTESIVKDDDHLIKLAVTEAEASKRKARFEACKREEAEKTAVDALKKAKQWENVYFEELKQRKETEKALRKRNDELEKMRSESETQITESYTVIRKLQEKNNLSMETFRGIREEQEELKIKLREVSKLKGKREEEEASTSNHREPPQYFICPITHDIMEDPHVAADGFTYEGEAISRWFERGHETSPMINKRLPHTSLVPNLALRSAIQEWLQLRELLNRPSACREI

Biological target: T1, VASCULAR-RELATED NAC-DOMAIN7 (Arabidopsis thaliana)
Assay: two-hybrid; Gal4 system, pAD-GAL4-GWRFC and pBD-GAL4-GWRFC fusions in S. cerevisiae AH109; growth at 30 °C on minimal SD medium lacking tryptophan and leucine, or tryptophan, leucine and histidine; repeated 3 times

binding, no binding:
B1, B2, B3, B4

Reference: article PMC11371170
